Source: patent US20250333487A1 (CYTOMX THERAPEUTICS, published 2025)
No constants are given. Whether binding was seen depends on the method and setting. Some results given as binding are weak or reduced against the parent protein; the word gives no strength. Sequences can lack the tags named with a protein.

T1: biotinylated BC2 tag peptide QGQSGQPDRKAAVSHWQ
T1 construct: Synthesized at ELIM Biopharmaceuticals; loaded on SSA biosensor tips at 100 nM; also called free BC2T peptide; the peptide
T1 peptide: Biotin-QGQSGQPDRKAAVSHWQ


Molecular target: T1, biotinylated BC2 tag peptide …
Test: BLI (ForteBio Octet), biotinylated peptide on SSA biosensor tips, 100 nM Nb
Experimental: Binding of the unmasked nanobody and single-anchored BC2T-Nb to free BC2T peptide was assessed by BLI using the ForteBio Octet device. While BLI is generally used to calculate association and dissociation kinetics of binding interactions, it was used herein to detect binding Peptide corresponding to the following sequence: […] (SEQ ID NO: 567) was synthesized at ELIM Biopharmaceuticals with a biotin at the N-terminus. The peptide was loaded on SSA biosensor tips (Pall/ForteBio Cat #18-5117) at 100 nM in Binding Buffer (BB: 1×PBS, pH 7.2, 5% glycerol, 0.1% Tween-20, 2% BSA) for 10 minutes. Baseline incubation in BB for 1 min before and after this capture step were used to confirm protein capture. The loaded tips were then incubated in 100 nM Nb in BB for 6 minutes followed by incubation in BB for 6 minutes. Changes in interference distance (nanometers) at the sensor tip are plotted against time to follow the binding/dissociation of soluble proteins from the immobilized ligand on the tip (FIG. 7).

binding | Binder
binds | product of ProC653 and MMP14 (ProC653+MMP14), activated ProC653 (VHH, not shown: small tags and cut ends) VHH: QVQLVESGGGLVQPGGSLTLSCTASGFTLDHYDIGWFRQAPGKEREGVSCINNSDDDTYYADSVKGRFTIFMNNAKDTVYLQMNSLKPEDTAIYYCAEARGCKRGRYEYDFWGQGTQVTVSS
binds | product of ProC654 and MMP9 (ProC654+MMP9), activated ProC654 (VHH, not shown: small tags and cut ends) VHH: QVQLVESGGGLVQPGGSLTLSCTASGFTLDHYDIGWFRQAPGKEREGVSCINNSDDDTYYADSVKGRFTIFMNNAKDTVYLQMNSLKPEDTAIYYCAEARGCKRGRYEYDFWGQGTQVTVSS
